Assay results published in US11066439 (dated 2021).

Assay: general procedure: Fmoc solid-phase peptide synthesis; Wang resin; DIC / oxymapure / DIPEA with inorganic salt (MgCl2)
Conditions: whole synthesis

In the case of “H-His^7-Ala^8-Glu^9-Gly^10-Thr^11-Phe^12-Thr^13-Ser^14-Asp^15-Val^16-Ser^17-Ser^18-Tyr^19-Leu^20-Glu^21-Gly^22-Glu^23-Ala^24-Ala^25-Lys(γ-Glu-palmitoyl)^26-Glu^27-Phe^28-Ile^29-Ala^30-Trp^31-Leu^32-Val^33-Arg^34-Gly^35-Arg^36-Gly^37-OH”, the “crude purity (method not given)” value (run 1) is reported as 51.3%, the crude yield (run 1) is reported as 18.25% and the “crude purity (method not given)” value (run 2) is reported as 51.16%. The crude yield (run 2) was 17.84%, the “crude purity (method not given)” value (run 3) was 51.7% and the crude yield (run 3) was 21.23%. For the same substance, the “crude purity (method not given)” value (run 4) was 34.4%, the crude yield (run 4) was 6.79% and the “crude purity (method not given)” value (run 5) was 39.1%. For the same substance, the crude yield (run 5) was 8.62%, the “crude purity (method not given)” value (run 6) was over 60.0% and the crude yield (run 6) was 27.0%.
